Paper doi:10.1101/2023.10.03.560675
These are yes or no findings as the source states them, for the method shown. In cells and extracts the contact can be indirect. Some results given as binding are weak or reduced against the parent protein; the word gives no strength.

Sequences of proteins named here, by UniProt entry; tags and fusion partners are left off.
UniProt Q15561: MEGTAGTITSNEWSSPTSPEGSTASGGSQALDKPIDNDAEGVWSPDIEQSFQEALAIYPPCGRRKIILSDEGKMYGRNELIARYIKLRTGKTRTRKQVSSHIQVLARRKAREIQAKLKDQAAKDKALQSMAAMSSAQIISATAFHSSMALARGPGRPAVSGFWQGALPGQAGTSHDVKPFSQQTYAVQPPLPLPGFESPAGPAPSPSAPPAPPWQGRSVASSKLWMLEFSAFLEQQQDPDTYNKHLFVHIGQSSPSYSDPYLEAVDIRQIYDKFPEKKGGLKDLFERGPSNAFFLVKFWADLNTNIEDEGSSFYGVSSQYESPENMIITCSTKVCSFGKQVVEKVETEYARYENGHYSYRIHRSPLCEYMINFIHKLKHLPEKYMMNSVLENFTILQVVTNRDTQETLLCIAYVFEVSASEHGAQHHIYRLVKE
UniProt P09874: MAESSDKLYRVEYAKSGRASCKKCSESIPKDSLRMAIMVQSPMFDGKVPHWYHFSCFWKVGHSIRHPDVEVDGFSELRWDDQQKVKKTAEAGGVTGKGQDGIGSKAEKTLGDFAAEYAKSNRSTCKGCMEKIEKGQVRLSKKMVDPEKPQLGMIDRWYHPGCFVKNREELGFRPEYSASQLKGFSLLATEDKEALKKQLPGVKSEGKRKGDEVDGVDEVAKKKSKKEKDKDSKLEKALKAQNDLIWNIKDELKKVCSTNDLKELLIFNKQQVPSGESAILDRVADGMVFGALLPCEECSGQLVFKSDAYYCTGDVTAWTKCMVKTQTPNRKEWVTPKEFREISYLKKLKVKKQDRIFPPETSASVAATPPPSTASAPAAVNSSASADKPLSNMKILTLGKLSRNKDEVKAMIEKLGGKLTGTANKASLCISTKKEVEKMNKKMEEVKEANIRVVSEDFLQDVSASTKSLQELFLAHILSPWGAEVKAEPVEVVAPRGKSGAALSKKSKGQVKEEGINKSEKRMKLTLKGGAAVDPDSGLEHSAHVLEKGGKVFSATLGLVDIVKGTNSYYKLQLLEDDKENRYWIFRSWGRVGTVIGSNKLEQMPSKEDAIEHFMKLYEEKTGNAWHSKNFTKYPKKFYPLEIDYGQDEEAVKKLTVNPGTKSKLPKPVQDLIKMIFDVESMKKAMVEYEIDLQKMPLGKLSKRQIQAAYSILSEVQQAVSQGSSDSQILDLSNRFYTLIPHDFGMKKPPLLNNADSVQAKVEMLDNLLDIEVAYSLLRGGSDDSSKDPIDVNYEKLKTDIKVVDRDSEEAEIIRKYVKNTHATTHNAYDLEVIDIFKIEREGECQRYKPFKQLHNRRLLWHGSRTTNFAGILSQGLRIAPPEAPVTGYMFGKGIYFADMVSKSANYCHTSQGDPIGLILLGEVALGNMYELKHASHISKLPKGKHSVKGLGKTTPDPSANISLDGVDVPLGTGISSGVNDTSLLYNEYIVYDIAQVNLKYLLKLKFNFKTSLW

Target: TEAD4-Myc (human) (UniProt Q15561)
Experiment: co-IP

With PARP1 (from UniProt P09874 1-1014) the binding was “binds”.
